Source: article PMC11239674

Experiments:
[1] = target: T1, AtGRP7short (Arabidopsis thaliana) (UniProt Q03250); experiment: MST; conditions: 25 mM Tris-HCl pH 8.0, 150 mM NaCl (150 mM LiCl for Sc1 LiCl), 1 mM DTT, 0.1 mg/ml BSA, 20 nM Cy5-RNA, about 2 min incubation, temperature not stated, recombinant protein, residues 1-87, protein details: N-terminal 6xHis, thrombin site, His removed, label: Cy5-UTP
T1 sequence (looked up): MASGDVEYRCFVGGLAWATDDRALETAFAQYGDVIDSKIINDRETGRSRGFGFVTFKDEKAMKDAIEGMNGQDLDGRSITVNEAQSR

[2] = target: T2, AtGRP7YtoE Y103E,Y111E,Y118E,Y131E,Y138E,Y148E,Y159E,Y167E (Arabidopsis thaliana) (UniProt Q03250); experiment: MST; conditions: 25 mM Tris-HCl pH 8.0, 150 mM NaCl (150 mM LiCl for Sc1 LiCl), 1 mM DTT, 0.1 mg/ml BSA; 20 nM Cy5-RNA; about 2 min incubation; temperature not stated; recombinant protein; residues 1-176; protein details: N-terminal 6xHis, thrombin site, His removed; label: Cy5-UTP
T2 sequence (looked up): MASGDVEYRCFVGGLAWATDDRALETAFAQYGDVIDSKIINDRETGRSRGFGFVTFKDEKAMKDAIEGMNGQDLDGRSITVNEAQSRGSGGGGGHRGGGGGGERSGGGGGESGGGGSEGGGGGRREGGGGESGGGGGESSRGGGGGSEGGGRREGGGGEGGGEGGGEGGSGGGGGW

AUGGGAAAUCGUUGUGCUAGAACUCCUUGUUGUACAAAGUUGUGGUCAUGUAUAUGCUGCUGCUGCUGCAGCAACAACAAAGCUCGAGCAAGAAGCCAACACGGGUCUAAAGGGAAUGUCUAUUCGAUAAACAGAAUUGAGAAAUGGGAAGAAAAGAUAACAGAAGCUAACAACAAUGGCAAGAUUCUGGUGGUGUAUUUCAGCGCGCCGUGGUGUGUACCUUGUAAAAAGAUAGAACCAGUAUUCAGAGAACUUGCUUCUAGAUACCCUUCAAUGAUUUUUGUAACCAUUGAUGUGGAAGAACUCGCUGAGUUUAGUGAUGAAUGGAAUGUGGAAGCUACACCAACUAUAGUGUUUCUUAAAGAUGGGAGACAAAUGGAUAAGCUUGUUGGUGCUGAAACCUCAGAGCUUCAGAAGAAAACAGCUGCAGCUGCUGAACUCUUACUCAGAAAACCAUAA [BnaCNNG53670D]
binding result ([1]; flanks not given): no binding

GGAUGGCGUCCCCUGAUGUUGAGUACCGGUGCUUCGUUGGAGGUCUAGCUUGGGCCACCGACGACAGAGCUCUCGAGACCGCCUUCUCCCAGUUCGGCGACGUUCUCGAUUCCAAGAUCAUUAACGAUCGUGAGACGGGACGAUCAAGGGGAUUCGGAUUCGUCACCUUCAAGGAUGAGAAGUCGAUGAAGGACGCCAUCGAGGGGAUGAACGGACAGGAUCUCGACGGUCGCAGCAUCACUGUUAACGAGGCUCAGUCUCGUGGAAGCGGUGGUGGCGGAGGAGGCCGCGGCGGAGGCGGUGGUGGAUACCGCAGCGGAGGCGGUGGUGGUUACGGAGGAGGCGGUGGUGGAUACGGUGGAGGUGGUGGAAGACGCGAGGGUGGUUACAGUGGUGGCGGUGGAGGUGGUUACUCGUCGAGAGGAGGUGGUGGCGGUGGAGGUUACGGUGGCAGGCGUGAUGGUGGUGAAGGUGGAGGUUACGGAGGAAGCGGUGGUGGUGGUUGGUAA [BnGRP7]
binding result [1]: no binding

GGCAUCACACCUUCCCUCUCUUCACUGUAAACCUACUACAUCUCCCCCUCUCUCUCAUUUCAAUGGCGUCCCCUGAUGUUGAGUACCGGUGCUUCGUUGGAGGUCUAGCUUGGGCCACCGACGACAGAGCUCUCGAGACCGCCUUCUCCCAGUUCGGCGACGUUCUCGAUUCCAAGAUCAUUAACGAUCGUGAGACGGGACGAUCAAGGGGAUUCGGAUUCGUCACCUUCAAGGAUGAGAAGUCGAUGAAGGACGCCAUCGAGGGGAUGAACGGACAGGAUCUCGACGGUCGCAGCAUCACUGUUAACGAGGCUCAGUCUCGUGGAAGCGGUGGUGGCGGAGGAGGCCGCGGCGGAGGCGGUGGUGGAUACCGCAGCGGAGGCGGUGGUGGUUACGGAGGAGGCGGUGGUGGAUACGGUGGAGGUGGUGGAAGACGCGAGGGUGGUUACAGUGGUGGCGGUGGAGGUGGUUACUCGUCGAGAGGAGGUGGUGGCGGUGGAGGUUACGGUGGCAGGCGUGAUGGUGGUGAAGGUGGAGGUUACGGAGGAAGCGGUGGUGGUGGUUGGUAAUUAGAUUUUAGAGUUUGAGGUUGUUGUUGUGUCUGUUCCGUUUCUGGGUUCGGGUUUAUGUUUCUAUCUCUAUGUGUUAUGUUUGGUUCUUGCUGUUUUGGUUGUAACAGUUCGUGGUUAGGUAUCUGAUAUCUGGAAACGCAAUGUUAAAUCACUUUUUCAUUAUCUUGCCGUGUUUUAUUUUUUAAGUUUAACAAAU [BnGRP7]
binding result [1]: no binding

GGAUGGCGAUGUCUUUCUCAGGAGCUGUUCUCACUGGUAUGGCUUCUUCUUUCCACAGCGGAGCCAAGCAGAGCAGCUUCGGCGCUGUCAGAGUCGGCCAGAAAACUCAGUUCGUCGUCGUUUCUCAACGCAAGAAGUCGUUGAUCUACGCCGCUAAAGGUGACGGCAACAUCCUCGAUGACCUCAACGAGGCCACAAAGAAAGCUUCAGAUUUCGUGACGGAUAAAACAAAAGAGGCAUUAGCAGAUGGUGAGAAAGCGAAAGACUACGUUGUUGAAAAAAACAGUGAAACCGCAGAUACAUUGGGUAAAGAAGCUGAGAAAGCUGCGGCGUAUGUGGAGGAGAAAGGAAAAGAAGCCGCAAACAAGGCGGCAGAGUUCGCGGAGGGUAAAGCAGGAGAGGCUAAGGAUGCCACAAAGUAG [AtCOR15A]
Kd [2]: 27.9 µM

GGAUGGCGUCCGGUGAUGUUGAGUAUCGGUGCUUCGUUGGAGGUCUAGCAUGGGCCACUGAUGACAGAGCUCUUGAGACUGCCUUCGCUCAAUACGGCGACGUUAUUGAUUCCAAGAUCAUUAACGAUCGUGAGACUGGAAGAUCAAGGGGAUUCGGAUUCGUCACCUUCAAGGAUGAGAAAGCCAUGAAGGAUGCGAUUGAGGGAAUGAACGGACAAGAUCUCGAUGGCCGUAGCAUCACUGUUAACGAGGCUCAGUCACGAGGAAGCGGUGGCGGCGGAGGCCACCGUGGAGGUGGUGGCGGUGGAUACCGCAGCGGCGGUGGUGGAGGUUACUCCGGUGGAGGUGGUAGCUACGGAGGUGGCGGCGGUAGACGCGAGGGUGGAGGAGGAUACAGCGGCGGCGGCGGCGGUUACUCCUCAAGAGGUGGUGGUGGCGGAAGCUACGGUGGUGGAAGACGUGAGGGAGGAGGAGGAUACGGUGGUGGUGAAGGAGGAGGUUACGGAGGAAGCGGUGGUGGUGGAGGAUGGUAA [AtGRP7]
binding result [1]: no binding

For some assays here: No signal at the amounts used counts as a negative. Where a protein sequence is shown, tags need not be part of it.
